The target in this assay is T1, recombinant human RANKL-murine Fc fusion protein (Sino Biological Inc.) (human) (UniProt O14788).
T1 sequence (looked up): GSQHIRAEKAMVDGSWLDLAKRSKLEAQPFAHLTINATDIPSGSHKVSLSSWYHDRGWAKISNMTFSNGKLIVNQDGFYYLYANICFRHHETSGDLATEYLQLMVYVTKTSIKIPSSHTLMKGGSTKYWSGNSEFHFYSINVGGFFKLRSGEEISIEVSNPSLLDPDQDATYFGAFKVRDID
Nature of the assay: ELISA, human RANKL-murine Fc coated.

The results in this text go back to patent publication US20230203204A1 (published 2023).

Results are given in words; binding and its absence hold for the method and conditions named. Some results given as binding are weak or reduced against the parent protein; the word gives no strength. Where a sequence is shown, tags or fusion partners need not be part of it.

B1: OPG-Fc (Sino Biological Inc.) (Fc fusion, UniProt O00300 22-401, looked up)
chain: ETFPPKYLHYDEETSHQLLCDKCPPGTYLKQHCTAKWKTVCAPCPDHYYTDSWHTSDECLYCSPVCKELQYVKQECNRTHNRVCECKEGRYLEIEFCLKHRSCPPGFGVVQAGTPERNTVCKRCPDGFFSNETSSKAPCRKHTNCSVFGLLLTQKGNATHDNICSGNSESTQKCGIDVTLCEEAFFRFAVPTKFTPNWLSVLVDNLPGTKVNAESVERIKRQHSSQEQTFQLLKLWKHQNKDQDIVKKIIQDIDLCENSVQRHIGHANLTFEQLRSLMESLPGKKVGAEDIEKTIKACKPSDQILKLLSLWRIKNGDQDTLKGLMHALKHSKTYHFPKTVTQSLKKTIRFLHSFTMYKLYQKLFLEMIGNQVQSVKISCL
notes: not shown: Fc part of the bought product
With B1, the binding result is on record as “binds”.
